This experiment concerns the target C-Raf FL (full length CRAF with Y340E and Y341E activating mutations, co-expressed with h14-3-3 zeta) (Homo sapiens (Human), UniProt P04049, Y340E/Y341E). The experiment in a line: In vitro Raf activity determination, AlphaScreen p-MEK readout, c-Raf (C-Raf FL). Format: biochemical. Particulars: read-out: C-RAF IC50 μM, c-Raf approximately 4 nM, ATP 1 μM, pre-incubation 60 minutes, reaction 1 hour. Background: Bead proximity is the source of the signal in Alpha formats.

Protein sequences, listed by entry. Tags and fused reporters are not part of them.
UniProt P04049, whole entry Y340E/Y341E: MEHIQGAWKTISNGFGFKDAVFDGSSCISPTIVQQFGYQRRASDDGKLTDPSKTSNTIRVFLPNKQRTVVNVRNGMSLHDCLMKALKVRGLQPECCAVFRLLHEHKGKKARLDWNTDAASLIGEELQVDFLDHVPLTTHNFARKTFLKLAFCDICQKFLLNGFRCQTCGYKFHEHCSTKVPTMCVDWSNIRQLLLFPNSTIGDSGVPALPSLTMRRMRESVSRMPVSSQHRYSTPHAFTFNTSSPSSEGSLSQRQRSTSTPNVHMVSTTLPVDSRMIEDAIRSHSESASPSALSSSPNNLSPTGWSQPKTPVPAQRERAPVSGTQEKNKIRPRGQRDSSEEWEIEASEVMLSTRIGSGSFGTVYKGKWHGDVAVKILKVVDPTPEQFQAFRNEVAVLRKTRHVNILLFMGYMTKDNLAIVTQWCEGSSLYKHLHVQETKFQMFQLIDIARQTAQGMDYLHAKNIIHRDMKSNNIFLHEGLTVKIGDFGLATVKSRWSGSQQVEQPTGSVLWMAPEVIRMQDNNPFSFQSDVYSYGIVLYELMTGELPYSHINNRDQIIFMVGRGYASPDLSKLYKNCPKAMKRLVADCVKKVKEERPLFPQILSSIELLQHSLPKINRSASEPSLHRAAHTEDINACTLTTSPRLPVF
UniProt P63104, whole entry partner: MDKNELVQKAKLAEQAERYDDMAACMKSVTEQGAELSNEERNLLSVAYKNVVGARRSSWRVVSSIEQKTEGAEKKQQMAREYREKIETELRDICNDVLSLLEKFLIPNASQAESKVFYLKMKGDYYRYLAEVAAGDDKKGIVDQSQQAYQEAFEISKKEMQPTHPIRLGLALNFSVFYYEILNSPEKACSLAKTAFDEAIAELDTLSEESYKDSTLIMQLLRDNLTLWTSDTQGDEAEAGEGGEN

Structures were worked out from names or drawings and are uncertain.

As a reminder, the IC50 is the point on the concentration scale where inhibition reaches its midpoint. On to `Cc1ncc(NC(=O)c2ccnc(C(C)(C)C#N)c2)cc1-c1ccc2c(c1)N1CCOC[C@@H]1C[C@@H]2O` (relative stereo), for which the IC50 worked out at 7.2 pM.
